Results deposited as PubChem BioAssay AID493246 (Drosophila RNAi Screening Center, 2011)
Aim: 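Identify essential fly genes by loss of cell viability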 (primary screen). System: Drosophila Kc and S2R+ cells. Knock-down reagent: long dsRNA against Drosophila genes. Read-out: 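Cell number per well after knock-down, printed as raw plate values; calls were based on per-plate z-scores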. Reading the numbers: Kc cell number and S2R+ cell number: higher = more cells remaining. Call rule: 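Counted as a hit if cell number falls by a z-score of at least 3 within its plate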.
The screen tested about 21,000 reagents; below is a random part of those that have a named target and a result. Over the whole deposit, 429 (2%) got an active call. 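Values are raw and not normalised between plates; calls rest on per-plate z-scores that were not deposited.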 Not stated in the record: the amount of reagent, the time to read-out.

Pc [DRSC11873] — Kc cell number, rep 1: 1.46e6; Kc cell number, rep 2: 1.57e6; S2R+ cell number, rep 1: 1.13e6; S2R+ cell number, rep 2: 1.25e6; Outcome: inactive
Eig71Ea [DRSC11148] — Kc cell number, rep 1: 1.41e6; Kc cell number, rep 2: 1.51e6; S2R+ cell number, rep 1: 1.22e6; S2R+ cell number, rep 2: 1.40e6; Outcome: inactive
Eh [DRSC16660] — Kc cell number, rep 1: 1.19e6; Kc cell number, rep 2: 1.23e6; S2R+ cell number, rep 1: 1.16e6; S2R+ cell number, rep 2: 1.30e6; Outcome: inactive
TfIIEbeta [DRSC08701] — Kc cell number, rep 1: 1.55e6; Kc cell number, rep 2: 1.44e6; S2R+ cell number, rep 1: 1.13e6; S2R+ cell number, rep 2: 1.33e6; Outcome: inactive
Zaf1 [DRSC16121] — Kc cell number, rep 1: 1.49e6; Kc cell number, rep 2: 1.46e6; S2R+ cell number, rep 1: 1.33e6; S2R+ cell number, rep 2: 1.35e6; Outcome: inactive
Acsx3 [DRSC14309] — Kc cell number, rep 1: 1.42e6; Kc cell number, rep 2: 1.54e6; S2R+ cell number, rep 1: 1.14e6; S2R+ cell number, rep 2: 1.18e6; Outcome: inactive
CG14220 [DRSC19577] — Kc cell number, rep 1: 1.67e6; Kc cell number, rep 2: 1.62e6; S2R+ cell number, rep 1: 9.74e5; S2R+ cell number, rep 2: 1.14e6; Outcome: inactive
slim [DRSC06921] — Kc cell number, rep 1: 1.42e6; Kc cell number, rep 2: 1.46e6; S2R+ cell number, rep 1: 1.25e6; S2R+ cell number, rep 2: 1.36e6; Outcome: inactive
imd [DRSC05928] — Kc cell number, rep 1: 1.57e6; Kc cell number, rep 2: 1.63e6; S2R+ cell number, rep 1: 1.25e6; S2R+ cell number, rep 2: 1.24e6; Outcome: inactive
CG32344 [DRSC08578] — Kc cell number, rep 1: 1.40e6; Kc cell number, rep 2: 1.44e6; S2R+ cell number, rep 1: 1.06e6; S2R+ cell number, rep 2: 1.16e6; Outcome: inactive
Mgat3 [DRSC01305] — Kc cell number, rep 1: 1.56e6; Kc cell number, rep 2: 1.58e6; S2R+ cell number, rep 1: 1.04e6; S2R+ cell number, rep 2: 1.18e6; Outcome: inactive
CG5958 [DRSC02915] — Kc cell number, rep 1: 1.55e6; Kc cell number, rep 2: 1.44e6; S2R+ cell number, rep 1: 1.08e6; S2R+ cell number, rep 2: 1.22e6; Outcome: inactive
CG17304 (retired record) [DRSC15222] — Kc cell number, rep 1: 1.35e6; Kc cell number, rep 2: 1.46e6; S2R+ cell number, rep 1: 8.84e5; S2R+ cell number, rep 2: 9.82e5; Outcome: inactive

The list goes on (3 carried over from the part before).
Mgat3 [DRSC01305] — Kc cell number, rep 1: 1.56e6; Kc cell number, rep 2: 1.58e6; S2R+ cell number, rep 1: 1.04e6; S2R+ cell number, rep 2: 1.18e6; Outcome: inactive
CG5958 [DRSC02915] — Kc cell number, rep 1: 1.55e6; Kc cell number, rep 2: 1.44e6; S2R+ cell number, rep 1: 1.08e6; S2R+ cell number, rep 2: 1.22e6; Outcome: inactive
CG17304 (retired record) [DRSC15222] — Kc cell number, rep 1: 1.35e6; Kc cell number, rep 2: 1.46e6; S2R+ cell number, rep 1: 8.84e5; S2R+ cell number, rep 2: 9.82e5; Outcome: inactive
Ir56b [DRSC06543] — Kc cell number, rep 1: 1.47e6; Kc cell number, rep 2: 1.53e6; S2R+ cell number, rep 1: 1.05e6; S2R+ cell number, rep 2: 1.26e6; Outcome: inactive
CG13377 [DRSC18622] — Kc cell number, rep 1: 1.51e6; Kc cell number, rep 2: 1.52e6; S2R+ cell number, rep 1: 1.14e6; S2R+ cell number, rep 2: 1.29e6; Outcome: inactive
CG12278 [DRSC14494] — Kc cell number, rep 1: 1.22e6; Kc cell number, rep 2: 1.34e6; S2R+ cell number, rep 1: 9.74e5; S2R+ cell number, rep 2: 1.08e6; Outcome: inactive
Ripalpha [DRSC02657] — Kc cell number, rep 1: 1.52e6; Kc cell number, rep 2: 1.62e6; S2R+ cell number, rep 1: 1.19e6; S2R+ cell number, rep 2: 1.30e6; Outcome: inactive
rau [DRSC03125] — Kc cell number, rep 1: 1.31e6; Kc cell number, rep 2: 1.32e6; S2R+ cell number, rep 1: 5.59e5; S2R+ cell number, rep 2: 6.55e5; Outcome: inactive
CG11986 [DRSC14461] — Kc cell number, rep 1: 1.43e6; Kc cell number, rep 2: 1.50e6; S2R+ cell number, rep 1: 1.20e6; S2R+ cell number, rep 2: 1.25e6; Outcome: inactive
CtsF [DRSC12056] — Kc cell number, rep 1: 1.56e6; Kc cell number, rep 2: 1.54e6; S2R+ cell number, rep 1: 1.17e6; S2R+ cell number, rep 2: 1.37e6; Outcome: inactive
CtsF [DRSC12195] — Kc cell number, rep 1: 1.70e6; Kc cell number, rep 2: 1.75e6; S2R+ cell number, rep 1: 1.43e6; S2R+ cell number, rep 2: 1.49e6; Outcome: inactive
CtsF [DRSC12196] — Kc cell number, rep 1: 1.59e6; Kc cell number, rep 2: 1.74e6; S2R+ cell number, rep 1: 1.28e6; S2R+ cell number, rep 2: 1.46e6; Outcome: inactive
